Measured values from the supplement of paper PMC12823440, “Inhibitors supercharge kinase turnover through native proteolytic circuits” (Nature, 2025).
This is one part of the list. The calls rarely recur for the same compound in another form.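 In K562 cells expressing nanoluciferase-fused kinases, luminescence was recorded at 4 h intervals between 2 and 18 h, normalized as percent of control with DMSO at 100% and a positive control at 0%. A significant (2 sigma) signal drop marks a time point as decreased. The authors' rule for a hit is not shown and takes in more than the number of time points.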

The chains behind the UniProt entries cited, without tags or fusion partners. Where a name states a change or a piece, a line headed by the entry shows the natural chain unless it says otherwise.
UniProt P14616: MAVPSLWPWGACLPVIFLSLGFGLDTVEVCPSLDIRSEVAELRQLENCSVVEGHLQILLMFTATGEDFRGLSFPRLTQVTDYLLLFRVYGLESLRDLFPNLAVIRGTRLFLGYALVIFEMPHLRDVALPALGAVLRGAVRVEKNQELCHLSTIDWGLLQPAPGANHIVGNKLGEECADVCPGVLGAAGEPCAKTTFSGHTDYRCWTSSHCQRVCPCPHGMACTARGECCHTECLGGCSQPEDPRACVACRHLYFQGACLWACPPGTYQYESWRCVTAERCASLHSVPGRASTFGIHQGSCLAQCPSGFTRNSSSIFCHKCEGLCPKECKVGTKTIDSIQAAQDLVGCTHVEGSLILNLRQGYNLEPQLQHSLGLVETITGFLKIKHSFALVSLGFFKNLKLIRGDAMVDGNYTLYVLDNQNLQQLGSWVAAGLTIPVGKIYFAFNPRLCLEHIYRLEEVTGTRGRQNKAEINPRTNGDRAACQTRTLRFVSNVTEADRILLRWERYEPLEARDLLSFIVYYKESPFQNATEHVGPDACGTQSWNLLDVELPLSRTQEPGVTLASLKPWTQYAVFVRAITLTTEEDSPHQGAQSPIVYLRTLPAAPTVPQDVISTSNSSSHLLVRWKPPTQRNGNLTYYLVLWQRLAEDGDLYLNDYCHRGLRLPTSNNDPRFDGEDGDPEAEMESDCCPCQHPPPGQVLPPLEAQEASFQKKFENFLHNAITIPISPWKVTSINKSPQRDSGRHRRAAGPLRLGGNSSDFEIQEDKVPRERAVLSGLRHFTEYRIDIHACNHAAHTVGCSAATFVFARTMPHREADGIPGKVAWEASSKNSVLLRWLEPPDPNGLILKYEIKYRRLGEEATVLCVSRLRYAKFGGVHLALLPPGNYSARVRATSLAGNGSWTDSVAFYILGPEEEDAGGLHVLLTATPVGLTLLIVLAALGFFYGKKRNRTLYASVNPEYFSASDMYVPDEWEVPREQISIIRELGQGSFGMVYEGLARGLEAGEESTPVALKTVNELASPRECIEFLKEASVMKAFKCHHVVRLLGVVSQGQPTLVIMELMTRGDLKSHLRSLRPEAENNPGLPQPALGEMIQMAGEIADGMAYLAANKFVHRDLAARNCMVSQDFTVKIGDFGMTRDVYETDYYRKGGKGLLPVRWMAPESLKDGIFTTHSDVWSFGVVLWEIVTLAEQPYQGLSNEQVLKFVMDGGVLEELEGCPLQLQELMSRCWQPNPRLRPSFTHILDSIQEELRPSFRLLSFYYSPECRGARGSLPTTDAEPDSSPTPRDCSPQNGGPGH

Molecular target: HER2 (UniProt P04626)
Assay: kinase-Nluc reporter destabilization hit call (1 = scored as downregulated) (binary); higher = compound decreases kinase abundance
Details: K562; 2-18 h

kinase-Nluc reporter destabilization hit call, inactive:
O=C1NC(=O)C(Cc2c[nH]c3c(Cl)cccc23)N1 (stereo not drawn) [Necroptosis-IN-1] (10 µM) 0
O=C1C=CC2=C3c4cc(O)c(O)cc4CC3(O)COC2=C1O (stereo not drawn) [Hematein] (10 µM) 0
NC(=O)c1cnc(N[C@@H]2CCCC[C@@H]2N)nc1Nc1cccc(-n2nccn2)c1 (2.5 µM) 0
COc1cc2nc(-c3cc(F)ccc3O)nc(N[C@@H]3CNC[C@H]3C(C)(C)O)c2cc1OC (2.5 µM) 0
CN1CCN(Cc2ccc(-c3cn(C4CCC(O)CC4)c4nc(NCCC5CC5)ncc34)cc2)CC1 (stereo not drawn) (2.5 µM) 0
O=S(=O)(c1ccc(O)cc1O)N1Cc2cc(O)cc(O)c2C1 (10 µM) 0

Molecular target: INSRR (UniProt P14616)
Assay: as above
Details: K562; 2-18 h

kinase-Nluc reporter destabilization hit call, inactive:
CC(C)Cn1ncc2cc(Oc3ccc(F)cc3F)c(C(=O)NCCN(C)C)cc21 [p38α inhibitor 1] (10 µM) 0
CNc1cc2c(Nc3cccc(Br)c3)ncnc2cn1 (10 µM) 0
CN1C(=O)[C@@H](NC(=O)c2cc(Cc3ccccc3)on2)COc2ccccc21 (10 µM) 0
CC(C1CC1)n1cnc2c(NCc3cccc(C(F)(F)F)c3)nc(NCCN(C)C)nc21 (stereo not drawn) (10 µM) 0
Cc1n[nH]c2ncc(C(=O)N3CCC[C@H]3c3ccc(Cl)cc3)cc12 (10 µM) 0
COc1ccc(Br)c(C=O)c1O [6-Bromo-2-hydroxy-3-methoxybenzaldehyde] (10 µM) 0
Oc1ccc(-c2cnc3ccc(NCc4ccco4)nn23)cc1 [IRAK inhibitor 2] (2.5 µM) 0
C[C@H](Nc1cc2c(-c3ccc4c(c3)OCO4)noc2cn1)c1ccccc1 (10 µM) 0
Nc1ccc(C(=O)Nc2cccc(-c3nc(N4CCOCC4)c4oc5ncccc5c4n3)c2)cn1 (10 µM) 0
CCOC(=O)c1c(N2CCc3ccc(OC)cc3C2)oc(C=C2C=Nc3ncccc32)c1O (10 µM) 0
Cc1ncc(-c2cc(F)c(O)c(F)c2)cc1-c1cc(F)c(O)c(F)c1 (10 µM) 0
N=C(NC(=N)N1CCCC1)Nc1ccc(OC(F)(F)F)cc1 (10 µM) 0
CC1(C)CN(C(=O)c2ccc(-c3cccc4nc(NC(=O)C5CC5)nn34)cc2)C1 [Solcitinib] (10 µM) 0
COc1c(O)cc(O)c2c(=O)cc(-c3ccccc3)oc12 [Wogonin] (10 µM) 0
O=C(NC[C@H](O)CO)c1ccncc1Nc1ccc(I)cc1F [Pimasertib] (10 µM) 0
N#Cc1cnc(Nc2cc(NC[C@H]3CNCCO3)c(C(F)(F)F)cn2)cn1 (10 µM) 0
CCNC(=O)Nc1ccc(-c2nc3c(c(N4CCOC[C@@H]4C)n2)CCN(C2COC2)C3)cc1 (2.5 µM) 0
COc1cc2ncnc(Nc3cc(Br)c(O)c(Br)c3)c2cc1OC (2.5 µM) 0
Nc1ccc(-c2nc3ccc(-c4nc5ccc(N)cc5[nH]4)cc3[nH]2)cc1 (10 µM) 0
CCCCC(=O)OCC(=O)[C@]1(O)Cc2c(O)c3c(c(O)c2[C@@H](O[C@H]2C[C@H](NC(=O)C(F)(F)F)[C@H](O)[C@H](C)O2)C1)C(=O)c1c(OC)cccc1C3=O [Valrubicin] (10 µM) 0
CCOC(=O)c1c(Nc2ccccc2Cl)oc(/C=C2\C=Nc3ncccc32)c1O (10 µM) 0
Nc1[nH]nc2nnc(-c3c(-c4ccccc4)nn4ccccc34)cc12 (10 µM) 0
COc1cc2nc(NC3CC3)nc(NC3CCN(C(C)C)CC3)c2cc1OC (10 µM) 0
S=C(NCc1ccc2c(c1)OCO2)N1CCN(c2ncnc3c2oc2ccccc23)CC1 [Amuvatinib] (2.5 µM) 0
CC(=O)O[C@@H]1[C@@H](OC(C)=O)[C@@H](O)[C@H](Oc2c(-c3ccc(O)cc3)oc3cc(O)cc(O)c3c2=O)O[C@H]1C (10 µM) 0
CC1=CC(=O)C(C(C)C)=C/C1=N/OC(=O)c1ccccc1C [Poloxin] (2.5 µM) 0
CO[C@@H]1[C@H](N(C)C(=O)c2ccccc2)C[C@H]2O[C@]1(C)n1c3ccccc3c3c4c(c5c6ccccc6n2c5c31)C(=O)NC4 [Midostaurin] (2.5 µM) 0

Copied from the entries so far (2 entries):
kinase-Nluc reporter destabilization hit call, inactive:
CC(C1CC1)n1cnc2c(NCc3cccc(C(F)(F)F)c3)nc(NCCN(C)C)nc21 (stereo not drawn) (10 µM) 0
Cc1n[nH]c2ncc(C(=O)N3CCC[C@H]3c3ccc(Cl)cc3)cc12 (10 µM) 0
